PubChem BioAssay AID1508597, Cure First – 2020

- Screen: 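Survival screen with siRNA in ovarian cancer cells derived from patients, with or without rucaparib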 (primary screen)
- Cell system: human ovarian carcinoma lines grown from tumours: OCI-P5x (papillary serous) and OCI-C5x (clear cell)
- Reagent: siRNA pool against human genes, 1.25 pmol siRNA per well
- Duration: 72 h or 96 h, depending on the cell culture
- Conditions: rucaparib 20 µM (about IC30) or vehicle, present until read-out
- Rucaparib or vehicle: Rucaparib
- Cell line: OCI-C5x (clear cell)
- Measurement: 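ATP luminescence measured at 72 or 96 h according to the culture, then normalised and expressed as percent viability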
- Reading the numbers: viability, normalised: higher = more viable cells remaining
- Active means: 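a well counts as a hit if its normalised viability is under 80 percent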
- Meaning of the calls: active = viability under 80%; inactive = viability 80% or more
This is a random part of the about 2,100 reagents, in one setting of the screen. 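Calls flag viability under 80% in either arm, not effects specific to rucaparib; the reference for percent is not stated.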 Not stated in the record: the 100% reference.

| Target gene | technical replicate | viability, normalised (%) | Call |
| --- | --- | --- | --- |
| KDM4B (lysine demethylase 4B) | 1 | 39.8 | active |
| KDM4B (lysine demethylase 4B) | 2 | 37.9 | active |
| KDM4B (lysine demethylase 4B) | 3 | 34.8 | active |
| PCDHB2 (protocadherin beta 2) | 1 | 52.4 | active |
| PCDHB2 (protocadherin beta 2) | 2 | 59.9 | active |
| PCDHB2 (protocadherin beta 2) | 3 | 59.2 | active |
| CDK4 (cyclin dependent kinase 4) | 1 | 48.3 | active |
| CDK4 (cyclin dependent kinase 4) | 2 | 42.1 | active |
| CDK4 (cyclin dependent kinase 4) | 3 | 50.1 | active |
| SMPDL3A (sphingomyelin phosphodiesterase acid like 3A) | 1 | 69.5 | active |
| SMPDL3A (sphingomyelin phosphodiesterase acid like 3A) | 2 | 65 | active |
| SMPDL3A (sphingomyelin phosphodiesterase acid like 3A) | 3 | 50.9 | active |
| GMEB1 (glucocorticoid modulatory element binding protein 1) | 1 | 43.6 | active |
| GMEB1 (glucocorticoid modulatory element binding protein 1) | 2 | 32.2 | active |
| GMEB1 (glucocorticoid modulatory element binding protein 1) | 3 | 36.6 | active |
| ULK3 (unc-51 like kinase 3) | 1 | 63.7 | active |
| ULK3 (unc-51 like kinase 3) | 2 | 49.9 | active |
| ULK3 (unc-51 like kinase 3) | 3 | 64.6 | active |
| HUNK (hormonally up-regulated Neu-associated kinase) | 1 | 67.4 | active |
| HUNK (hormonally up-regulated Neu-associated kinase) | 2 | 48.2 | active |
| HUNK (hormonally up-regulated Neu-associated kinase) | 3 | 31.4 | active |
| MAPK14 (mitogen-activated protein kinase 14) | 1 | 50 | active |
| MAPK14 (mitogen-activated protein kinase 14) | 2 | 53.8 | active |
| MAPK14 (mitogen-activated protein kinase 14) | 3 | 51.5 | active |
| ZDHHC2 (zDHHC palmitoyltransferase 2) | 1 | 74.1 | active |
| ZDHHC2 (zDHHC palmitoyltransferase 2) | 2 | 57.5 | active |
| ZDHHC2 (zDHHC palmitoyltransferase 2) | 3 | 51.6 | active |
